In article PMC2709443 one finds binding data, which are given here for twelve molecules.

Amino acid sequences for entries named in this document (tags omitted). A change or cut given only in a name is not applied to a line headed by its entry.
UniProt Q9LKU3: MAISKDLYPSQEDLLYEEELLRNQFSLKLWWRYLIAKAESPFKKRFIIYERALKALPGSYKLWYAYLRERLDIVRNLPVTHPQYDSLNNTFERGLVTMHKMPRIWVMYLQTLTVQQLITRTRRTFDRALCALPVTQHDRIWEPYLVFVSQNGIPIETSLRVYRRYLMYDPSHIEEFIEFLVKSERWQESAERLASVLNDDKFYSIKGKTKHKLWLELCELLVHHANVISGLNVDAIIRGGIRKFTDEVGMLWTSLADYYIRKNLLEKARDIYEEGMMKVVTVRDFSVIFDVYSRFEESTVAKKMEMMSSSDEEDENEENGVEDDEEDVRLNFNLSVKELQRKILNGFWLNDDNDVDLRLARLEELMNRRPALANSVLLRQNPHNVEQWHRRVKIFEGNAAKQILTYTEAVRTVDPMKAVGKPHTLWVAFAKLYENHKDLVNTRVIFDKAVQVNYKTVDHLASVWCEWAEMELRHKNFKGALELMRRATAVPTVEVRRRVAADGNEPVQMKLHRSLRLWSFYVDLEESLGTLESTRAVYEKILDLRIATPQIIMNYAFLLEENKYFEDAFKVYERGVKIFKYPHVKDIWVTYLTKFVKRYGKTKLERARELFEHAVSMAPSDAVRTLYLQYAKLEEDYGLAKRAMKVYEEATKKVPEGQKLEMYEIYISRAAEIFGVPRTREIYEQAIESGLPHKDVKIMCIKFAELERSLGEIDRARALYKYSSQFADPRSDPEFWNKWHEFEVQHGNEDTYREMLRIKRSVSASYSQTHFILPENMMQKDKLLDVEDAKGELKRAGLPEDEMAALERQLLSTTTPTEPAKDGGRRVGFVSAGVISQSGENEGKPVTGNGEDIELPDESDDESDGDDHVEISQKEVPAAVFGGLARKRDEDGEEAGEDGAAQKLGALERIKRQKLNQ
UniProt Q9FMF9: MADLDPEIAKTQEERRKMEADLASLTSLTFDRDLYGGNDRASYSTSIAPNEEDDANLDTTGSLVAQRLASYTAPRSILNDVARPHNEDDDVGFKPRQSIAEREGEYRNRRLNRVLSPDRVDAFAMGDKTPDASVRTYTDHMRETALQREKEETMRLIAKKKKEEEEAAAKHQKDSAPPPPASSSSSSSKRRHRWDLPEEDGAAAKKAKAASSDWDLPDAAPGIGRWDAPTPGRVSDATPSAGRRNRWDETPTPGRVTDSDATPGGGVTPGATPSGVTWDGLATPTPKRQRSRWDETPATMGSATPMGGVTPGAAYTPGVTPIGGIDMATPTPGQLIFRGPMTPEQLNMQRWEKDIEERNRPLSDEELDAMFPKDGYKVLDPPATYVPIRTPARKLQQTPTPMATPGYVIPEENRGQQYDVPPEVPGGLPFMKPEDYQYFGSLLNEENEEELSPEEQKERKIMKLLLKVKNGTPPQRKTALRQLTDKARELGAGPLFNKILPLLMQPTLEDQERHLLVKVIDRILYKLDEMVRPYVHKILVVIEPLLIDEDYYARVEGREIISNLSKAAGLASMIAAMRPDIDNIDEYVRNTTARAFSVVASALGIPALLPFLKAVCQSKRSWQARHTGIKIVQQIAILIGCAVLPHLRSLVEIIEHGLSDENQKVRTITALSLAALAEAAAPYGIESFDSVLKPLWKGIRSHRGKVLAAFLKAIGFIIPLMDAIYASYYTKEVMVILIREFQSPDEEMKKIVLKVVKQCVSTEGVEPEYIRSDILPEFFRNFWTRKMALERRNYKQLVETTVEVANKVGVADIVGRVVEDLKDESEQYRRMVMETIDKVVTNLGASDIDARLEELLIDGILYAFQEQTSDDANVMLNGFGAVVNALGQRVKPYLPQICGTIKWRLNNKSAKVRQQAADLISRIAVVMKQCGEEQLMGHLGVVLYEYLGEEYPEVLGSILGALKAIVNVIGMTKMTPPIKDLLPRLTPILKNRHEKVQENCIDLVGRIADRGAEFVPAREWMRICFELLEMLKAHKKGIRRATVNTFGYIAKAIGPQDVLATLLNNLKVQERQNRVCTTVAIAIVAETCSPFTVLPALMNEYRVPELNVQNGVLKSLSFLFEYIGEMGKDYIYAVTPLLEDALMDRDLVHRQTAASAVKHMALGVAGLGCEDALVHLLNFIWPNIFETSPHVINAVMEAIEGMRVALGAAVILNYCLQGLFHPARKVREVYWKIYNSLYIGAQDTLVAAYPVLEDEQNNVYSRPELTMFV
UniProt Q9LS97: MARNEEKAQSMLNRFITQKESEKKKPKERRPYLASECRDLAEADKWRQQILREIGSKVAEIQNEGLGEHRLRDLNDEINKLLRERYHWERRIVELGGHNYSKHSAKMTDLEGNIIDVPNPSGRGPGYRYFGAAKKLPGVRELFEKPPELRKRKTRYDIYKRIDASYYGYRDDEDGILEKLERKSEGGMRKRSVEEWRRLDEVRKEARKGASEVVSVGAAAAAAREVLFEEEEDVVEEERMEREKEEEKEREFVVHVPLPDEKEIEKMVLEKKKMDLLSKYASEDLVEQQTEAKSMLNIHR
UniProt F4ITX4: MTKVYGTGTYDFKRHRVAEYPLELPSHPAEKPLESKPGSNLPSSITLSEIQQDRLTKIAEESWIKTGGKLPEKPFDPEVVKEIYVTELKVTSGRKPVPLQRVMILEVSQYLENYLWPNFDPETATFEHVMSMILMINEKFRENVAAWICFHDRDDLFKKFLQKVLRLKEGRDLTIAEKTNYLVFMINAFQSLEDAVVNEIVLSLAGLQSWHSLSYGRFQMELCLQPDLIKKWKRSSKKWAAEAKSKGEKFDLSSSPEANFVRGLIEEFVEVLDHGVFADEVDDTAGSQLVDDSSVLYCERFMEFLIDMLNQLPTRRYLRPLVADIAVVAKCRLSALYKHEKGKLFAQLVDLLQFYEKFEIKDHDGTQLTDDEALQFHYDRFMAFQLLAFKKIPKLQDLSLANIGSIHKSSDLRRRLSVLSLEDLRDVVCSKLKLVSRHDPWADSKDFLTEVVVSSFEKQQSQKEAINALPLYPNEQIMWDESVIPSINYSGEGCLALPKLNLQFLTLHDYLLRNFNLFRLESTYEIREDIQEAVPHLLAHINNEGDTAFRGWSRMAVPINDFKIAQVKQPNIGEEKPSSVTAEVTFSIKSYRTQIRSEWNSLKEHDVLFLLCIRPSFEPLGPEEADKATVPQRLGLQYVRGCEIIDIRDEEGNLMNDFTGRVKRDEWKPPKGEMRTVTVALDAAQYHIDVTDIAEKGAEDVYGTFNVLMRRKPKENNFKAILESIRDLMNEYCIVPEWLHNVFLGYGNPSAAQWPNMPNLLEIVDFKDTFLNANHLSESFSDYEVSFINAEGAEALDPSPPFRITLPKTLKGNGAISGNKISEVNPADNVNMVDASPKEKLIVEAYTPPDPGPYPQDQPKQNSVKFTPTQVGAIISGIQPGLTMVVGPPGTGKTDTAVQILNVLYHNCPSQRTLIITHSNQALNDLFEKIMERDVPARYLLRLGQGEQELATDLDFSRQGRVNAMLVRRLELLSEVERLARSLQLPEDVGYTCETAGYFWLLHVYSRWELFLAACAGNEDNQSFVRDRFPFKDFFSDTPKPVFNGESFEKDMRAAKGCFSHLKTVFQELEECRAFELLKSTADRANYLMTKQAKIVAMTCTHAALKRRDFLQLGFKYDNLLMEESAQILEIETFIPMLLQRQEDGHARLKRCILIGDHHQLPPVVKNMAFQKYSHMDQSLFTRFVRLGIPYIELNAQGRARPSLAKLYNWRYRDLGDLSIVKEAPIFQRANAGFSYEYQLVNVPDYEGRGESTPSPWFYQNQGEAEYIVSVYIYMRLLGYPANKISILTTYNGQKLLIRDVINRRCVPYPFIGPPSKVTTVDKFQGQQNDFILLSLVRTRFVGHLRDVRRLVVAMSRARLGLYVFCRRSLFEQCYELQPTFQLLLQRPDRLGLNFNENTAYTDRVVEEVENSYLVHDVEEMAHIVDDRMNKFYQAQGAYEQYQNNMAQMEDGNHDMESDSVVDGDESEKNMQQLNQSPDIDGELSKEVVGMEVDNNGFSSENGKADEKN
UniProt Q9SYP1: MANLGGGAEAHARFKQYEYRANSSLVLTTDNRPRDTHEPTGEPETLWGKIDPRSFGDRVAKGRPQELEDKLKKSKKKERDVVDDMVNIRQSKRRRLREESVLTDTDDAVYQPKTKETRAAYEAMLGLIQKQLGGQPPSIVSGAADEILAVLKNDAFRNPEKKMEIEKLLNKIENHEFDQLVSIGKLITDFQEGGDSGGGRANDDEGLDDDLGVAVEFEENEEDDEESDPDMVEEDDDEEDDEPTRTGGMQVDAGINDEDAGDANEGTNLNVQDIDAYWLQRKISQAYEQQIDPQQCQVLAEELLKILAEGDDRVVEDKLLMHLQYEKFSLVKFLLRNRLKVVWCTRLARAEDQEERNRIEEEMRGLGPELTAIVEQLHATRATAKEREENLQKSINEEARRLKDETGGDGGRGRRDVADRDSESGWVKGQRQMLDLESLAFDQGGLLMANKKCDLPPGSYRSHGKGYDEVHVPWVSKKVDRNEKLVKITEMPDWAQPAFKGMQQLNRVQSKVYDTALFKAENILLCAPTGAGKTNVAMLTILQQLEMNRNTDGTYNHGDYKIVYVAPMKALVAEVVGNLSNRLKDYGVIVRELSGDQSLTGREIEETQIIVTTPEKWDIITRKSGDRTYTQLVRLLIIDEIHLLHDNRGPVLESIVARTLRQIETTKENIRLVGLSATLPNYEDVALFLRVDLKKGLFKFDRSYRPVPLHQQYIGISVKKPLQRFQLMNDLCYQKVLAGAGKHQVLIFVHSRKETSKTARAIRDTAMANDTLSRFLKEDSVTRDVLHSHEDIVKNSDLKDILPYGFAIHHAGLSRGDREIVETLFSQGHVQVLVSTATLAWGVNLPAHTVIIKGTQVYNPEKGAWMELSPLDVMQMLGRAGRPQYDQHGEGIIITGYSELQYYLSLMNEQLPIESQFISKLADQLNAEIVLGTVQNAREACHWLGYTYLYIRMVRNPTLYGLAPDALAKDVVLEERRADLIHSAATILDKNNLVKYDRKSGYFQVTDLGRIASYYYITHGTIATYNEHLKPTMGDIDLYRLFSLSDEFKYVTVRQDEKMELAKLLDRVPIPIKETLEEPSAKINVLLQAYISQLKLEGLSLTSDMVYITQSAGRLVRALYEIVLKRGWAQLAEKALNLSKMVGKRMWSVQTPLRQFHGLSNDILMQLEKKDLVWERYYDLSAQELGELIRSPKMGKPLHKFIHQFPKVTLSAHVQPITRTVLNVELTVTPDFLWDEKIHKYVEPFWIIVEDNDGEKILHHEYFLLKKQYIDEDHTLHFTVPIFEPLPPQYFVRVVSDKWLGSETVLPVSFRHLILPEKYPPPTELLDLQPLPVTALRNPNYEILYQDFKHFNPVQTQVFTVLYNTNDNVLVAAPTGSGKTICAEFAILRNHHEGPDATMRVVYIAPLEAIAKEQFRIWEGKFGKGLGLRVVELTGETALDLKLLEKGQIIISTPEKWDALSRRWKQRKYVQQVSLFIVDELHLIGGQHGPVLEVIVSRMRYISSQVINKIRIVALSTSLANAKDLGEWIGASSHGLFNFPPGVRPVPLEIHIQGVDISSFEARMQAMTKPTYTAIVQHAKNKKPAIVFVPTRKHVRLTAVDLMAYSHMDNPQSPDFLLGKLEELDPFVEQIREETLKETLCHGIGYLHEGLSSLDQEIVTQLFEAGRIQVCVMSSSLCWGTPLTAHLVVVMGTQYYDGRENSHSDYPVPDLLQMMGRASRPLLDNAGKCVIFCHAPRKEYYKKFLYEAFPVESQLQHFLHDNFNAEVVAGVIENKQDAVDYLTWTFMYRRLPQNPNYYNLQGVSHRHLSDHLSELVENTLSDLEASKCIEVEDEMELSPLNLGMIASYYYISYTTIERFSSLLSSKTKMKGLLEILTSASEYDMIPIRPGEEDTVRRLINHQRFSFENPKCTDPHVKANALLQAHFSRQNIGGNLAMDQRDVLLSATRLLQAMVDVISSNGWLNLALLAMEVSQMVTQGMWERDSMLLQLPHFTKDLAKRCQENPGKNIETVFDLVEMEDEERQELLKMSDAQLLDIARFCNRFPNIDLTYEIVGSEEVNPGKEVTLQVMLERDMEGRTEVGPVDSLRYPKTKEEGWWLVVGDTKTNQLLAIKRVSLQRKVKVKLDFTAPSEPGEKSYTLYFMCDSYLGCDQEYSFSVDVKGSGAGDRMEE

The target of this assay is T1, MOS4-HA (full-length MOS4 with a C-terminal triple hemagglutinin tag, native promoter) (Arabidopsis thaliana) (UniProt Q949S9).
T1 sequence: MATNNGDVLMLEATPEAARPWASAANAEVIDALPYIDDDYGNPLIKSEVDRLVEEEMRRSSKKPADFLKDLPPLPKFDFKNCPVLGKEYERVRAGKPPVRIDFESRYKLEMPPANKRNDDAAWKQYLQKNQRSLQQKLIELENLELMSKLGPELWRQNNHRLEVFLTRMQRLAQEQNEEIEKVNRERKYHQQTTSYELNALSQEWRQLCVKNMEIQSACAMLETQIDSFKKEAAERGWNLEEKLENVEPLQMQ
Put plainly: affinity purification with mass spectrometry; MOS4-HA precipitated with anti-HA microbeads from dialysed nuclear extract (buffer NE-3: 20 mM HEPES-KOH pH 7.9, 100 mM KCl) of about 100 g leaf tissue of MOS4-HA mos4-1 plants, on ice; eluate on 12% SDS-PAGE, silver-stained, lane cut into eight pieces, MS; Col-0 as control.

No constants are given. Whether binding was seen depends on the method and setting. Binding seen in cells or lysates may run through a third protein. A yes stands for co-enrichment or nearness to the bait. Other partners may have been found. Sequences can lack the tags named with a protein.

On to “transcription-coupled DNA repair-related; RNA processing (AT5G28740) (from UniProt Q9LKU3)”, for which the binding entry is reported as “binds”.

With “SUS2/EMB177; embryogenesis (AT1G80070) (from UniProt Q9SSD2 1-2359)”, the binding entry is “binds”.

With “putative splicing factor similar to RCN1; PP2A regulator (AT5G64270) (from UniProt Q9FMF9)”, the binding entry is “binds”.

In the case of “similar to two coiled coil domains of eukaryotic ori (AT3G18790) (from UniProt Q9LS97)”, the binding result is recorded as “binds”.

Turning to “EMB2765; helicase (AT2G38770) (from UniProt F4ITX4)”, the binding entry is reported as “binds”.

“EMB1507; DEAD-box helicase (AT1G20960) (from UniProt Q9SYP1 1-2171)”: the binding result is given as “binds”.

B1: PRL1/MAC2; WD-40 repeat family (protein, UniProt Q42384 1-486)
chain: MPAPTTEIEPIEAQSLKKLSLKSLKRSLELFSPVHGQFPPPDPEAKQIRLSHKMKVAFGGVEPVVSQPPRQPDRINEQPGPSNALSLAAPEGSKSTQKGATESAIVVGPTLLRPILPKGLNYTGSSGKSTTIIPANVSSYQRNLSTAALMERIPSRWPRPEWHAPWKNYRVIQGHLGWVRSVAFDPSNEWFCTGSADRTIKIWDVATGVLKLTLTGHIEQVRGLAVSNRHTYMFSAGDDKQVKCWDLEQNKVIRSYHGHLSGVYCLALHPTLDVLLTGGRDSVCRVWDIRTKMQIFALSGHDNTVCSVFTRPTDPQVVTGSHDTTIKFWDLRYGKTMSTLTHHKKSVRAMTLHPKENAFASASADNTKKFSLPKGEFCHNMLSQQKTIINAMAVNEDGVMVTGGDNGSIWFWDWKSGHSFQQSETIVQPGSLESEAGIYAACYDNTGSRLVTCEADKTIKMWKEDENATPETHPINFKPPKEIRRF
Regarding B1, the binding result is listed as “binds”.

B2: AtCDC5/MAC1; R2-R3 Myb transcription factor (protein, UniProt P92948 1-844)
chain: MRIMIKGGVWKNTEDEILKAAVMKYGKNQWARISSLLVRKSAKQCKARWYEWLDPSIKKTEWTREEDEKLLHLAKLLPTQWRTIAPIVGRTPSQCLERYEKLLDAACTKDENYDAADDPRKLRPGEIDPNPEAKPARPDPVDMDEDEKEMLSEARARLANTRGKKAKRKAREKQLEEARRLASLQKRRELKAAGIDGRHRKRKRKGIDYNAEIPFEKRAPAGFYDTADEDRPADQVKFPTTIEELEGKRRADVEAHLRKQDVARNKIAQRQDAPAAILQANKLNDPEVVRKRSKLMLPPPQISDHELEEIAKMGYASDLLAENEELTEGSAATRALLANYSQTPRQGMTPMRTPQRTPAGKGDAIMMEAENLARLRDSQTPLLGGENPELHPSDFTGVTPRKKEIQTPNPMLTPSMTPGGAGLTPRIGLTPSRDGSSFSMTPKGTPFRDELHINEDMDMHESAKLERQRREEARRSLRSGLTGLPQPKNEYQIVAQPPPEESEEPEEKIEEDMSDRIAREKAEEEARQQALLKKRSKVLQRDLPRPPAASLAVIRNSLLSADGDKSSVVPPTPIEVADKMVREELLQLLEHDNAKYPLDDKAEKKKGAKNRTNRSASQVLAIDDFDENELQEADKMIKEEGKFLCVSMGHENKTLDDFVEAHNTCVNDLMYFPTRSAYELSSVAGNADKVAAFQEEMENVRKKMEEDEKKAEHMKAKYKTYTKGHERRAETVWTQIEATLKQAEIGGTEVECFKALKRQEEMAASFRKKNLQEEVIKQKETESKLQTRYGNMLAMVEKAEEIMVGFRAQALKKQEDVEDSHKLKEAKLATGEEEDIAIAMEASA
Turning to B2, the binding result is “binds”.

B3: CLO/GFA1/MEE5; translation elongation; nucleic acid binding (AT1G06220) (protein, UniProt Q9LNC5 1-987)
chain: MESSLYDEFGNYVGPEIESDRDSDDEVEDEDLQDKHLEENGSDGEQGPGGSNGWITTINDVEMENQIVLPEDKKYYPTAEEVYGEDVETLVMDEDEQPLEQPIIKPVRDIRFEVGVKDQATYVSTQFLIGLMSNPALVRNVALVGHLQHGKTVFMDMLVEQTHHMSTFNAKNEKHMKYTDTRVDEQERNISIKAVPMSLVLEDSRSKSYLCNIMDTPGHVNFSDEMTASLRLADGAVLIVDAAEGVMVNTERAIRHAIQDHLPIVVVINKVDRLITELKLPPRDAYYKLRHTIEVINNHISAASTTAGDLPLIDPAAGNVCFASGTAGWSFTLQSFAKMYAKLHGVAMDVDKFASRLWGDVYYHSDTRVFKRSPPVGGGERAFVQFILEPLYKIYSQVIGEHKKSVETTLAELGVTLSNSAYKLNVRPLLRLACSSVFGSASGFTDMLVKHIPSPREAAARKVDHSYTGTKDSPIYESMVECDPSGPLMVNVTKLYPKSDTSVFDVFGRVYSGRLQTGQSVRVLGEGYSPEDEEDMTIKEVTKLWIYQARYRIPVSSAPPGSWVLIEGVDASIMKTATLCNASYDEDVYIFRALQFNTLPVVKTATEPLNPSELPKMVEGLRKISKSYPLAITKVEESGEHTILGTGELYLDSIMKDLRELYSEVEVKVADPVVSFCETVVESSSMKCFAETPNKKNKITMIAEPLDRGLAEDIENGVVSIDWNRKQLGDFFRTKYDWDLLAARSIWAFGPDKQGPNILLDDTLPTEVDRNLMMAVKDSIVQGFQWGAREGPLCDEPIRNVKFKIVDARIAPEPLHRGSGQMIPTARRVAYSAFLMATPRLMEPVYYVEIQTPIDCVTAIYTVLSRRRGHVTSDVPQPGTPAYIVKAFLPVIESFGFETDLRYHTQGQAFCLSVFDHWAIVPGDPLDKAIQLRPLEPAPIQHLAREFMVKTRRRKGMSEDVSGNKFFDEAMMVELAQQTGDLHLQMI
On to B3, for which the binding result is “binds”.

B4: chromatin protein family (AT1G77180) (protein, UniProt O80653 1-613)
chain: MKSLNDLPAPKSTTTTYYDHSNDAWFKNRVTESETVKSSSIKFKVVPAYLNRQGLRPKNPEDFGDGGAFPEIHLPQYPLLMGKNKSNKPGAKTLPVTVDAQGNVVFDAIVRQNENSRKIVYSQHKDIIPKFLKNEGDLGTVVDEEEELQKEIQETAEETKAAIEKIVNVRLSAAQPSNIARQSGDSQYIKYKPSQQSSAFNSGAKERIIRMVEMPVDPLDPPKFKHKRVPRASGSPPVPVMHSPPRPVTVKDQQDWKIPPCISNWKNPKGYTIPLDKRLAADGRGLQDVQINDNFAKLSEALYVAEQKAREAVSMRSKVQKEMVMKDKERKEQELRALAQKARSERTGAAMSMPVSSDRGRSESVDPRGDYDNYDQDRGREREREEPQETREEREKRIQREKIREERRRERERERRLDAKDAAMGKKSKITRDRDRDISEKVALGMASTGGKGGGEVMYDQRLFNQDKGMDSGFAADDQYNLYDKGLFTAQPTLSTLYKPKKDNDEEMYGNADEQLDKIKNTERFKPDKAFTGASERVGSKRDRPVEFEKEEEQDPFGLEKWVSDLKKGKKPLDKIGSGGTMRASGGGGSSSRDDDHGGSGRTKINFERSDRR
B4: the binding entry was “binds”.

B5: zinc finger (CCCH-type) family protein; RNA binding (AT1G07360) (protein, UniProt Q9LNV5 1-481)
chain: MAHRILRDHEADGWERSDFPIICESCLGDNPYVRMTKANYDKECKICTRPFTVFRWRPGRDARYKKTEICQTCCKLKNVCQVCLLDLEYGLPVQVRDTALNISTHDSIPKSDVNREYFAEEHDRKARAGLDYESSFGKMRPNDTILKLQRTTPYYKRNRAHVCSFFIRGECTRGAECPYRHEMPETGELSQQNIKDRYYGVNDPVAMKLLGKAGEMGTLESPDDESIKTLYVGGLNSRILEQDIRDQFYAHGEIESIRILADKACAFVTYTSREGAEKAAQELSNRLVINGQRLKLTWGRPKPDQDGANQQGGVAHSGLLPRAVISQQHNQPPPMQQYYMHPPPANQDKPYYPSMDPQRMGAVISTQEAGGSSTENNGASSSSYMMPPHQSYPPPPYGYMPSPYQQQYPPNHHHQPSPMQHYAPPPAAYPYPQQPGPGSRPAPSPTAVSAISPDSAPAGSGAPSGSSQQAPDVSTATGSSQ
With B5, the binding entry is listed as “binds”.

B6: EMB2733/ESP3; DEAD-box like helicase (AT1G32490) (protein, UniProt Q8VY00 1-1044)
chain: MASNDLKTWVSDKLMMLLGYSQAAVVNYLIAMAKKTKSPTELVGELVDYGFSSSGDTRSFAEEIFARVPRKTAGVNLYQKHEAEAAMLVRKQKTYALLDADDDEDEVVVEKKSSVSESRKSDKGKKRFRKKSGQSDESDGEVAVREDSRHVRRKVSEEDDGSESEEERVRDQKEREELEQHLKDRDTARTRKLTEQTLSKKEKEEAVRRANALEKDDLYSLRKVSRQEYLKKREQKKLDELRDEIEDEQYLFGGEKLTETELREFRYKKELYDLVKKRTQDEDNVEEYRIPDAYDQEGGVDQEKRFSVAVQRYRDLDSTEKMNPFAEQEAWEDHQIGKATLKFGAKNKQASDDYQFVFEDQINFIKESVMAGENYEDAMDAKQKSQDLAEKTALEELQEVRRSLPIYTYRDQLLKAVEEHQVLVIVGDTGSGKTTQIPQYLHEAGYTKRGKVGCTQPRRVAAMSVAARVAQEMGVKLGHEVGYSIRFEDCTSDKTVLKYMTDGMLLRELLGEPDLASYSVVIVDEAHERTLSTDILFGLVKDIARFRPDLKLLISSATMDAEKFSDYFDTAPIFSFPGRRYPVEINYTSAPEADYMDAAIVTILTIHVREPLGDILVFFTGQEEIETAEEILKHRIRGLGTKIRELIICPIYANLPSELQAKIFEPTPEGARKVVLATNIAETSLTIDGIKYVVDPGFSKMKSYNPRTGMESLLITPISKASATQRAGRAGRTSPGKCYRLYTAFNYNNDLEENTVPEVQRTNLASVVLALKSLGIHDLINFDFMDPPPAEALVKSLELLFALGALNKLGELTKAGRRMAEFPLDPMLSKMIVVSDKYKCSDEIISIAAMLSIGGSIFYRPKDKQVHADNARMNFHTGNVGDHIALLKVYSSWKETNFSTQWCYENYIQVRSMKRARDIRDQLEGLLERVEIDISSNLNELDSVRKSIVAGFFPHTAKLQKNGSYRTVKHPQTVHIHPNSGLSQVLPRWVVYHELVLTSKEYMRQVTELKPEWLIELAPHYYQLKDVEDAASKKMPKGAGKAAM
Turning to B6, the binding result is given as “binds”.
